Entries after “also recorded” stand apart in the source; their conditions may differ. Read-outs that look alike come from different tables or passages of the source.
Assay: Secondary structure by CD and FTIR spectroscopy

Substance | Contains α-sheet Structure? | other results
Ac-WRPwAiDgMNTBKQRkAsVyLQP-NH2 (WRPWAIDQMNTVKQRKASVYLQP; D-residues) [peptide #13] | form α-sheet and yes | Contains α-sheet Structure? (listed as Control 4): adopt α-sheet structure
Ac-RGEaWmYiKNNLSETmMsNmWGR-NH2 [peptide #12] | form α-sheet and yes | Contains α-sheet Structure? (listed as Control6): forms α-sheet; also recorded: α-sheet structure
Ac-RGNwNeSkMNEYSGWmLmLtMGR-NH2 (RGNWNESKMNEYSGWMLMLTMGR; D-residues) [peptide #6] | form α-sheet and yes | Contains α-sheet Structure? (listed as Control5): adopts α-sheet structure
Ac-RGEmNiSwMNEYSGWtMnLkMGR-NH2 [peptide #1] | adopt α-sheet structure and form α-sheet and yes | –
Ac-AQQiEcItNVWDKEItMyFnVSE-NH2 (AQQIECLTNVWDKELTMYFNVSE; D-residues) [peptide #11] | form α-sheet and yes | Contains α-sheet Structure? (listed as Control 3): adopt α-sheet structure
Ac-MNWESkGEwIRMRYGtmLSNGnM-NH2 (MNWESKGEWLRMRYGTMLSNGNM; D-residues) [peptide #19] | do not and no | Contains α-sheet Structure? (listed as Control2): does not form α-sheet
RGEmNlSwMNEYSGWtMnLkMGR [peptide #7] | adopt α-sheet structure | –
Ac-RGEMNLSWMNEYSGWTMNLKMGR-NH2 [peptide #20] | do not and no | Contains α-sheet Structure? (listed as llas90): does not form α-sheet

— patent US9896487B2, “Amyloidosis-inhibiting polypeptides and their use” (UNIVERSITY OF WASHINGTON THROUGH ITS CENTER FOR …, priority 2013, dated 2018)
